According to PubChem BioAssay AID1487 (National Center for Advancing Translational Sciences (NCATS), 2009):
This is one part of the list. These are further read-outs of the screen, such as a control signal, another cell line or another target. No call is given for them. Compounds called inactive in the main read-out are mostly missing here. The note in brackets gives the kind of curve behind each potency; many fits are weak.

Assay: qHTS Assay for Modulators of Lamin A Splicing
Conditions: HeLa LMNA splicing GFP/RFP minigene ratio, 48 h
How it was run: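 S3 HeLa stable clones carrying a lamin A-EGFP splicing minigene plus DsRed2 were seeded at 600 cells/well in Opti-MEM with 2% FBS, pin-dosed and incubated 48 h at 37°C. Acumen cytometry (488 nm) gave the GFP/RFP total-intensity ratio.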

[1] = measured here: RFP viability control channel
[2] = measured here: GFP splicing reporter channel

SMILES	AC50 [1]	AC50 [2]
CCN(CC)c1cc2c(cc1F)c(=O)c(S(=O)(=O)c1cccc(C)c1)cn2C	20 µM [rising, partial curve]	–
CCC1CCCCN1S(=O)(=O)c1ccc(S(=O)(=O)N(Cc2cccs2)C2CC2)cc1 (stereo unspecified)	7.94 µM [rising, partial curve, poor fit]	–
COc1ccc(NC(=O)c2ccc3c(c2)sc2nc(-c4ccc(OC)cc4)cn23)cc1	7.08 µM [rising, partial curve]	–
C1=C(CCNc2ncnc3nc[nH]c23)CCCC1	15.8 µM [rising, partial curve]	10 µM [rising, partial curve, poor fit]
CCN1CCN(CCCNC(=O)c2ccc(/C=C3/Sc4ccccc4N(Cc4ccccc4F)C3=O)cc2)CC1	35.5 µM [falling, partial curve]	35.5 µM [falling, single point]
Cc1occc(=O)c1O	7.94 µM [rising, single point]	–
Cc1cc(C(=O)Nn2c(C3CCCCC3)nc3ccccc3c2=O)ccc1[N+](=O)[O-]	20 µM [rising, single point]	14.1 µM [rising, single point]
CCCC(c1nnnn1CC1CCCO1)N1CCN(c2cc(Cl)ccc2C)CC1 (stereo unspecified)	35.5 µM [rising, partial curve]	28.2 µM [rising, single point]
COc1cccc(NS(=O)(=O)c2ccc3c(c2)CCCN3C(C)=O)c1	35.5 µM [rising, single point]	35.5 µM [rising, single point]
COc1cc2c(cc1OC)CN(c1nc(CN3CCCCC3)nc3sc4c(c13)CCCC4)CC2	14.1 µM [rising, partial curve, poor fit]	7.08 µM [rising, partial curve, poor fit]
CC(=O)Nc1ccc(N(CC(O)Cn2c3ccccc3c3ccccc32)S(=O)(=O)c2ccc(C)cc2)cc1 (stereo unspecified)	35.5 µM [rising, single point]	–
CCOC(=O)c1ccccc1NC(=O)CSc1nnnn1C1CCCCC1	10 µM [rising, single point]	–
CC1(C)SC2C(N3C(=O)C(c4ccccc4)NC3(C)C)C(=O)N2C1C(=O)O (stereo unspecified)	–	0.00447 µM [falling, full curve, poor fit]
CCCCn1nc(C(=O)Nc2nc3c(s2)CCCC3)c2ccccc2c1=O	10 µM [rising, partial curve]	6.31 µM [rising, full curve, poor fit]

Single entries from the entries so far:
Under AC50 [1], `CCCC(c1nnnn1CC1CCCO1)N1CCN(c2cc(Cl)ccc2C)CC1` (stereo unspecified) is listed with 35.5 µM [rising, partial curve]
Under AC50 [1], `CC(=O)Nc1ccc(N(CC(O)Cn2c3ccccc3c3ccccc32)S(=O)(=O)c2ccc(C)cc2)cc1` (stereo unspecified) is listed with 35.5 µM [rising, single point]
